Data set [1] concerns the target SHOC1 570-1111 (Homo sapiens) (UniProt Q5VXU9). Nature of the data set: EMSA. The following applies: 2 mM Mg2+, 20 mM Tris-HCl pH 7.4, 1 mM DTT, 2 mM MgCl2, 100 mM NaCl, 20 ul, 10 min at 37 C, 8% PAGE in 1x TAE, recombinant protein, residues 570-1111, label: 5'-32P on #1.
Data set [2] addresses SHOC1 570-1041 (Homo sapiens) (UniProt Q5VXU9). Description: EMSA. The following applies: 2 mM Mg2+; 20 mM Tris-HCl pH 7.4, 1 mM DTT, 2 mM MgCl2, 100 mM NaCl, 20 ul, 10 min at 37 C; 8% PAGE in 1x TAE; recombinant protein; residues 570-1041; label: 5'-32P on #1; single-stranded DNA. A general note: In EMSA bound probe runs differently from free probe, usually more slowly.

The chains behind the UniProt entries cited, without tags or fusion partners. Residues count along the entry.
UniProt Q5VXU9, 570-1111: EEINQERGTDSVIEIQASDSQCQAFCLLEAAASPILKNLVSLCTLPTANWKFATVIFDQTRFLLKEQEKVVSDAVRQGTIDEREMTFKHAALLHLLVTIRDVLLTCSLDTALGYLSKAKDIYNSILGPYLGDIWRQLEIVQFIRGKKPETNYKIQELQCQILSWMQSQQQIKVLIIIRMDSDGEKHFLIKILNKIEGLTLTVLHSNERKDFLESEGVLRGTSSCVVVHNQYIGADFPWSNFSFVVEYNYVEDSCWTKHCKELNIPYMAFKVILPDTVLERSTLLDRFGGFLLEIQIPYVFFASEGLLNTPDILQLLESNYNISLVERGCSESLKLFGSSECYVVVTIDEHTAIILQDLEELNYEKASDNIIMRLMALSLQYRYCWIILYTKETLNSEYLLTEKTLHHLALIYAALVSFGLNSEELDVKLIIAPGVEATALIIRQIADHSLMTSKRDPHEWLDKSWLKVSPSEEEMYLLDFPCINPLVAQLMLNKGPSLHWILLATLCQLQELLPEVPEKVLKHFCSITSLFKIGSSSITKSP
UniProt Q5VXU9, 570-1041: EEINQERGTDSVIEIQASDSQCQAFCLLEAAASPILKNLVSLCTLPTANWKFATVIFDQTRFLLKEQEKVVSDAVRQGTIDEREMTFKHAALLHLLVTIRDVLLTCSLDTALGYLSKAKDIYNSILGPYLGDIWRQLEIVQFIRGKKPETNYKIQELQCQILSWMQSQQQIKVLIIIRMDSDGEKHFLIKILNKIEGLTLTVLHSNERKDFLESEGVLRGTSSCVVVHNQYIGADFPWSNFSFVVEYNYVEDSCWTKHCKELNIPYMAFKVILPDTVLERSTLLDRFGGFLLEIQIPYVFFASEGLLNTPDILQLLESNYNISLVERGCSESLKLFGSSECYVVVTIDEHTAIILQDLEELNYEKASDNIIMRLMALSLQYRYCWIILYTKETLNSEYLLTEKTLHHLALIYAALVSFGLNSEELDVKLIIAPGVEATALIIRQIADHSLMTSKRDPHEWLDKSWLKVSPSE

Experimental findings from publication PMC5962103 are described below.

Weaker means in comparison with the reference protein, sequence or condition of that experiment. For some of these results: For at least one entry, the source does not settle the construct or the ends of the probe.

Take “ACGCTGCCGAATTCTACCAGTGCCTTGCTAGGACATCTTTGCCCACCTGCAGGTTCACCC / GGGTGAACCTGCAGGTGGGCAAAGATGTCCTAGCAAGGCACTGGTAGAATTCGGCAGCGT / ACGGCATAAAGCTTGACGATTACAACAGATCATGGAGCTGTCTAGAGGATCCGACTATCG / CGATAGTCGGATCCTCTAGACAGCTCCATGTAGCAAGGCACTGGTAGAATTCGGCAGCGT [Holliday junction (#1, #2, #3, #4)]”: the binding result in data set [1] (folded or branched DNA) is “binds”.

On to “ACGCTGCCGAATTCTACCAGTGCCTTGCTAGGACATCTTTGCCCACCTGCAGGTTCACCC / CGATAGTCGGATCCTCTAGACAGCTCCATGTAGCAAGGCACTGGTAGAATTCGGCAGCGT [splayed arm (#1, #4)]”, for which the binding result in data set [1] (folded or branched DNA) is “binds more weakly”. For the sequence “ACGCTGCCGAATTCTACCAGTGCCTTGCTAGGACATCTTTGCCCACCTGCAGGTTCACCC [single-stranded DNA (#1)]”, in data set [2], the binding result is on record as “binds more weakly”. Consider “ACGCTGCCGAATTCTACCAGTGCCTTGCTAGGACATCTTTGCCCACCTGCAGGTTCACCC (double strand) [linear duplex (#1, #5)]”, for which, in data set [1], the binding result is on record as “binds more weakly”.
